Experimental data: PubChem BioAssay AID504784 (Drosophila RNAi Screening Center, 2011)

Purpose: 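Search for regulators of lipid droplet storage in oleate-fed fly cells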 (primary screen)
Cells: Drosophila Kc167 embryonic cells
Reagent: long dsRNA against Drosophila genes, about 250 ng dsRNA per well
Duration: 4 days
Challenge: cells fed 400 µM oleic acid bound to BSA
Measurement: 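Microscope images give a droplet-to-nucleus area ratio, taken as log and converted to a screen-wide B-score; higher values mean greater lipid storage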
Direction: droplet/nuclear area B-score: higher = more stored lipid (overstorage)
The deposit covers about 17,000 reagents; shown is an unselected part of those with a known target gene and a result. 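Each column is one replicate's B-score; the combined score over replicates was not deposited, so single values may mislead.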 Names joined by + are all predicted targets of the reagent.

gene knocked down	dsRNA	droplet/nuclear area B-score, replicate 1	droplet/nuclear area B-score, replicate 2	droplet/nuclear area B-score, replicate 3
Zcchc7 (Zinc finger CCHC-type containing 7)	DRSC11099	-0.927	0.307	-1.39
AOX1 (Aldehyde oxidase 1)	DRSC15339	-0.274	-0.319	
Rcd7 (Reduction in Cnn dots 7)	DRSC10100	-1.74	-1.03	
CG7408	DRSC10841	0.00692	-0.968	
l(2)gd1 (lethal (2) giant discs 1)	DRSC02773	-0.406	-0.285	
l(2)03659 (lethal (2) 03659)	DRSC07269	-0.519	-0.0299	
l(2)03659 (lethal (2) 03659)	DRSC07638	-1.53	-1.67	
CG10470	DRSC02061	0.123	-0.147	
bora (aurora borealis)	DRSC10744	-0.815	-0.354	-1.09
CG13838	DRSC14688	-0.281	0.668	-1.89
CG15550	DRSC15088	-0.578	-1.98	
His-Psi:CR31616 + His-Psi:CR31615	DRSC03760	0.486	-0.173	
osp (outspread)	DRSC01409	-0.0954	0.0869	
osp (outspread)	DRSC03585	-1.94	-1.61	

Already shown: 5 of the entries above.
gene knocked down	dsRNA	droplet/nuclear area B-score, replicate 1	droplet/nuclear area B-score, replicate 2	droplet/nuclear area B-score, replicate 3
l(2)03659 (lethal (2) 03659)	DRSC07638	-1.53	-1.67	
CG10470	DRSC02061	0.123	-0.147	
bora (aurora borealis)	DRSC10744	-0.815	-0.354	-1.09
CG13838	DRSC14688	-0.281	0.668	-1.89
CG15550	DRSC15088	-0.578	-1.98	

Additional reagents follow.
gene knocked down	dsRNA	droplet/nuclear area B-score, replicate 1	droplet/nuclear area B-score, replicate 2	droplet/nuclear area B-score, replicate 3
Mal-A3 (Maltase A3)	DRSC07462	-1.05	-2.6	
Rrp6	DRSC16223	0.274	0.0385	
erm (earmuff)	DRSC00700	0.465	0.337	
CG7778	DRSC03067	0.654	0.819	
yellow-d	DRSC04589	-0.0678	-0.827	
CG7888	DRSC10926	-0.955	0.237	
CG1894	DRSC15396	-0.0828	1.01	
Cyp317a1 (Cytochrome P450 317a1)	DRSC07366	0.502	-0.661	
CG2608	DRSC02709	-0.0626	0.00666	
Sf3a1 (Splicing factor 3a subunit 1)	DRSC15166	-0.606	-1.22	
Pdi (Protein disulfide isomerase)	DRSC11250	-2.7	-1.03	
CG17826	DRSC10289	-0.885	-0.125	
Cpr30F (Cuticular protein 30F)	DRSC02908	-0.608	1.54	
CG31544 (retired record)	DRSC12466	-0.64	-0.59	
amon (amontillado)	DRSC13784	0.844	0.137	
amon (amontillado)	DRSC16900	-0.771	-0.3	0.528
Gpdh3 (Glycerol-3-phosphate dehydrogenase 3)	DRSC13561	-1.6	-1.56	
Gpdh3 (Glycerol-3-phosphate dehydrogenase 3)	DRSC15325	-0.977	-0.936	
tsg (twisted gastrulation)	DRSC20380	-0.189	0.18	-0.295
CG30222	DRSC04125		1	
CG30222	DRSC04262	-0.35	0.543	
